Record: PubChem BioAssay AID1224830 (NIAID, 2016)
Aim: 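Host factors that control LPS-induced TNF expression in human macrophages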 (primary screen). Cell system: human THP-1 monocytic leukaemia cells, TNF dual-luciferase reporter clone, PMA-differentiated to macrophage-like cells. Knock-down reagent: siRNA pool against human genes, 50 nM. Time to read-out: LPS for 4 h, given about 3 days after siRNA transfection. Challenge: bacterial LPS (TLR4 ligand), 10 ng/ml. Measurement: 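TNF firefly reporter luminescence divided by renilla, normalised to the plate median, then turned into a robust z-score for each replicate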. Reading the numbers: TNF reporter robust z-score: higher = stronger TNF reporter response to LPS. Active means: 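a well is active when its z-score exceeds 2.8 or falls below -1.5; control wells carry no call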.
In all, the deposit lists about 18,000 reagents; below is a random part of them. About 2,900 of all reagents (16%) were called active. 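Calls are made per well; low scores hint the gene aids the LPS response, high scores that it dampens it.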 Entries without a mark were called inactive. Repeated entries: four replicate wells of each siRNA pool.

gene symbol,TNF reporter robust z-score
SLC43A3,0.21
SLC43A3,-0.24
SLC43A3,-0.83
SLC43A3,-0.16
PDAP1,-0.41
PDAP1,-0.44
PDAP1,-1.17
PDAP1,-0.86
RDH12,-0.15
RDH12,0.22
RDH12,-0.82
SNRPA1,-0.66
SNRPA1,-0.51
SNRPA1,-0.12
SNRPA1,0.96
INTS11,0.2
INTS11,1.53
INTS11,-0.82
INTS11,-0.65
LENG9,2.64
LENG9,3.5 (active)
LENG9,4.07 (active)
LENG9,1.1
OR4X1,-0.21
OR4X1,-0.31
OR4X1,-0.17
OR4X1,-0.44
MBOAT2,2.74
MBOAT2,2.75
MBOAT2,1.32
MBOAT2,0.38
ATG2A,-0.75
ATG2A,-0.07
ATG2A,-0.56
ATG2A,0.51
CNTFR,-0.86
CNTFR,0.43
CNTFR,-0.65
CNTFR,-0.51
PKD2L2,-0.73
PKD2L2,1.53
PKD2L2,1
PKD2L2,-0.59
BTNL2,-0.46
BTNL2,-0.75
BTNL2,-0.44
BTNL2,0.11
IGF2-AS,-0.55
IGF2-AS,-0.17
IGF2-AS,0.05
IGF2-AS,2.36
DTX2,-0.81
DTX2,1.35
DTX2,0.19
DTX2,-0.83
C19orf33,-0.84
C19orf33,-0.74
C19orf33,-1
C19orf33,0.04
IFNA4,-0.07
IFNA4,0.94
IFNA4,1.47
IFNA4,2.14
USF2,-0.23
USF2,0.41
USF2,0.34
USF2,-0.1
NR2F6,-1.07
NR2F6,-0.23
NR2F6,0.18
NR2F6,-0.55
TNRC18,0.4
TNRC18,-0.09
TNRC18,-0.97
TNRC18,-0.41
RBM6,-0.3
RBM6,-0.13
RBM6,-0.38
RBM6,0.3
PHACTR4,-0.45
PHACTR4,0.33
PHACTR4,-1.18
PHACTR4,0.15
USP19,0.57
USP19,0.14
USP19,-0.22
USP19,-0.49
PLN,-0.94
PLN,-0.46
PLN,-1.53 (active)
PLN,-0.51
EMG1,1.15
EMG1,0.26
EMG1,0.97
EMG1,1.11
VDAC3,-0.91
VDAC3,0.05
VDAC3,-0.74
VDAC3,0.5
TMA16,0.24
TMA16,0.66
TMA16,0.61
TMA16,0.95
ALDH5A1,-0.23
ALDH5A1,0.11
ALDH5A1,0.58
ALDH5A1,0.37
ANKRD42,0.92
ANKRD42,0.57
ANKRD42,-0.47
ANKRD42,0.67

Targets listed so far whose target name begins with R or r:
gene symbol,TNF reporter robust z-score
RDH12,-0.15
RDH12,0.22
RDH12,-0.82
RBM6,-0.3
RBM6,-0.13
RBM6,-0.38
RBM6,0.3
